Laboratory results published in paper PMC10566475 (Chemical Science, 2023).
Plain letter strings leave the end groups untold. Some peptides are written in HELM: one residue between dots, names in brackets for other building blocks, links after the first $.

test: general procedure: Fmoc solid-phase peptide synthesis; Rink amide resin (0.308 mmol/g loading); DIC; HATU/DIPEA; conditions: conjugation step, thioether ring

Substance	final HPLC purity [%]
C5LQLDPETGEC5L clicked with H	96
C5DPETGEC5L clicked with G	93
C5LQLDPETGEC5L clicked with G	90
C5DPETGEC5L clicked with H	97

same assay, conditions: cyclisation step

Substance	final HPLC purity [%]
AzaLQLDPETGEAzaL	98
PEPTIDE1{[ac].L.Q.C.D.P.E.T.G.E.C.L.[am]}|CHEM1{[StapleC]}$PEPTIDE1,CHEM1,4:R3-1:R1|PEPTIDE1,CHEM1,11:R3-1:R2$$$V2.0	85
PEPTIDE1{[ac].C.L.Q.L.[D(OMe)].P.[E(OMe)].T.G.[E(OMe)].C.L.[am]}|CHEM1{[DVP-F]}$PEPTIDE1,CHEM1,2:R3-1:R1|PEPTIDE1,CHEM1,12:R3-1:R2$$$V2.0	99
PEPTIDE1{[ac].C.Q.L.D.P.E.T.G.E.C.L.[am]}|CHEM1{[StapleB]}$PEPTIDE1,CHEM1,2:R3-1:R1|PEPTIDE1,CHEM1,11:R3-1:R2$$$V2.0	>99
PEPTIDE1{[ac].C.Q.L.D.P.E.T.G.E.C.L.[am]}|CHEM1{[StapleA]}$PEPTIDE1,CHEM1,2:R3-1:R1|PEPTIDE1,CHEM1,11:R3-1:R2$$$V2.0	88
C5DPETGEC5L	54
PEPTIDE1{[ac].L.Q.C.D.P.E.T.G.E.C.L.[am]}|CHEM1{[StapleB]}$PEPTIDE1,CHEM1,4:R3-1:R1|PEPTIDE1,CHEM1,11:R3-1:R2$$$V2.0	96
PEPTIDE1{[ac].L.Q.C.D.P.E.T.G.E.C.L.[am]}|CHEM1{[StapleA]}$PEPTIDE1,CHEM1,4:R3-1:R1|PEPTIDE1,CHEM1,11:R3-1:R2$$$V2.0	98

same assay, conditions: cyclisation step, thioether ring, sequence written open

Substance	final HPLC purity [%]
CCQLDPETGECCL	99
CDQLDPETGECDL	99
CDLQLDPETGECDL	97
CFLQLDPETGECFL	93
LQCDDPETGECDL	98
CFLQLD(OMe)PE(OMe)TGECFL	88
CFLQLDPE(OMe)TGE(OMe)CFL	96
CFLQLD(OMe)PETE(OMe)CFL	98

same assay, conditions: whole synthesis

Substance	final HPLC purity [%]
CLQLDPE(OMe)TGE(OMe)CL	95
CLQLD(OMe)PE(OMe)TGECL	95
PEPTIDE1{[ac].C.Q.L.D.P.E.T.G.E.C.L.[am]}$$$$V2.0	85
N3-Apa-GWWG-(D)R(D)R(D)R -NH2	88
LQLDPETGEFL	96
PEPTIDE1{[ac].C.L.Q.L.D.P.E.T.G.E.C.L.[am]}$$$$V2.0	78
PEPTIDE1{[ac].L.Q.C.D.P.E.T.G.E.C.L.[am]}$$$$V2.0	94
PEPTIDE1{[ac].C.D.P.E.T.G.E.C.L.[am]}$$$$V2.0	98
LCEGTEPDCQL	90
LCEGTEPDLQC	>99
CLQLD(OMe)PE(OMe)TGE(OMe)CL	87
CLQLD(OMe)PETGE(OMe)CL	96
